Some results were stated once for a whole list of compounds, not compound by compound.
Tested on: bronchoconstriction induced by methacholine
Assay: Methacholine-induced bronchoconstriction in conscious guinea-pigs, whole body plethysmography (sGaw)
Format: in vivo, guinea-pig
Conditions: tiotropium 1 μg/ml, listed as tiotropium
Protocol: Groups of six male Dunkin-Hartley guinea-pigs, weighing 350-450 g were used throughout. Animals received food and water ad libitum and lighting was maintained in the room (22+/−2° C.) on a 12 h cycle. This work complied with the guidelines for the care and use of laboratory animals according to the Animals (Scientific Procedures) Act 1986.
Whole body plethysmography of the conscious guinea-pig was used to monitor airway function, recorded as specific airways conductance (sGaw). […] The resulting change in box volume (pressure) was simultaneously measured.
Changes in air flow and box pressure were measured using UP1 and UP2 pressure transducers, respectively. The resulting waveforms could then be rapidly analysed by comparing the gradients of the flow and the box pressure waves at a point where flow tended towards zero, i.e. end tidal flow. […] A minimum of five breaths were analysed for each animal at each time point to arrive at a mean value, which is the reported value.
In the experimental examples described herein, the reported values for sGaw measurements were taken following histamine or […] without treatment. This pre-treatment sGaw value measured after histamine or methacholine challenge, by convention, determined 100% bronchoconstriction for the animal. […]

**Q.** Which “% Inhibition” value (FIG. 5A) does the source give for `C[N+]1(C)[C@@H]2C[C@@H](OC(=O)C(O)(c3cccs3)c3cccs3)C[C@H]1[C@@H]1O[C@@H]12` [Tiotropium, tiotropium] here?
**A.** less than 40%

**Q.** And the “% Inhibition” value (FIG. 5C)?
**A.** less than 40%

From US20090087425A1, “Combination of nitroderivatized steroid and bronchodilator for treating respiratory disease” (Topigen Pharmaceuticals Inc., priority 2007, published 2009)
